Experimental data: PubChem BioAssay AID1259254 (NCATS, 2017)

Aim: 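Genome-wide screen for genes that prevent DNA re-replication in cancer cells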 (primary screen)
Cell system: human HCT116 colorectal cancer cells
Knock-down reagent: single siRNA against human genes
Time to read-out: 3 days
Measured: 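Nuclei stained with Hoechst and imaged; cell-cycle phase assigned by DNA content; G2 share scaled per plate, non-targeting siRNA 0%, GMNN siRNA 100%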
Scale: G2 robust z-score: higher = more G2 cells, more excess DNA replication
Hit rule: 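An siRNA counts as active if its G2 robust z-score lies at least 5 MADs above the screen median; here such calls match roughly 38% of GMNN control or more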
Shown is one part, drawn at random, of about 59,000 reagents. About 1,550 of all reagents (2.6%) count as active. 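G2 share is only a proxy for re-replication; each gene was hit by three separate siRNAs, and active genes were retested.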 Unmarked entries are inactive. Reagents against one gene are numbered here. Not all columns of the deposit are shown. No sequences are given here. Not given: the amount of reagent.

G2 robust z-score, by gene and reagent
SPAG17: #1 -0.368; #2 -0.461; #3 0.125
CYLC1: #1 -1.06; #2 -0.315; #3 -0.526
SUV39H1: #1 -0.661; #2 1.8; #3 1.21
CYSTM1: #1 1.14; #2 0.232; #3 -0.76

Reprinted from above for reference:
G2 robust z-score, by gene and reagent
CYLC1: #2 -0.315; #3 -0.526

Continued.
G2 robust z-score, by gene and reagent
RSPO1: #1 0.472; #2 0.907; #3 -0.211
NNMT: #1 0.317; #2 -1.1; #3 -0.0768
MCCC2: #1 -0.014; #2 -0.473; #3 -0.914
PTPN18: #1 -0.475; #2 0.402; #3 2.5
COMMD4: #1 1.21; #2 0.703; #3 1.51
BMP15: #1 1.34; #2 1.66; #3 -0.187
